Tested on: NOK (oral human keratinocyte) cell lines
Assay: Sulphorhodamine B cytotoxicity assay
Type: cell-based
Method: The cytotoxicity of sixteen semisynthetic compounds derived from protocatechuic acid was assessed using a sulphorhodamine B assay in NOK (oral human keratinocyte) cell lines obtained from the American Type Culture Collection (Manassas, VA, USA). The strains were maintained in bottles appropriate for cell culture with keratinocyte serum free medium (Gibco, Life Technologies) and incubated in standard conditions of 37°C and 5% CO2. Cell concentrations ranging from 2.5 to 5.0 × 10^4 cells/mL were used for the formation of cell monolayers. The concentrations of pure substances were kept in contact with the cells for 24 hours. After the incubation period, the cells were treated with the sulphorhodamine B reagent (Sigma-Aldrich, St. Louis, MO, USA) as previously described by Skehan et al., with some modifications.

SMILES	SI (IC50/MFC) (NOK IC50 / MFC Tm1)	SI (IC50/MFC) (NOK IC50 / MFC Tm2)	SI (IC50/MFC) (NOK IC50 / MFC Tm3)	SI (IC50/MFC) (NOK IC50 / MFC Tr1)	SI (IC50/MFC) (NOK IC50 / MFC Tr2)	SI (IC50/MFC) (NOK IC50 / MFC Tr3)
CCCCCCCCOC(=O)c1ccc(O)c(O)c1 [Protocatechuate octyl, octyl protocatechuate]	13.8	27.7	13.8	27.7	7.0	27.7
CCCCCCOC(=O)c1ccc(O)c(O)c1 [Protocatechuate hexyl, hexyl protocatechuate]	17.0	17.0	8.5	17.0	17.0	17.0
CCCCCCCOC(=O)c1ccc(O)c(O)c1 [Protocatechuate heptyl, protocatechuate heptyl]	20.0	80.5	20.0	40.0	40.0	40.0
CCCCCCCCCOC(=O)c1ccc(O)c(O)c1 [Protocatechuate nonyl, nonyl protocatechuate]	13.2	13.2	13.2	26.7	13.2	13.2
CCCCCOC(=O)c1ccc(O)c(O)c1 [Protocatechuate pentyl, pentyl protocatechuate]	3.7	7.3	7.3	7.3	7.3	7.3

Source: publication PMC4086519, “Anti-Trichophyton Activity of Protocatechuates and Their Synergism with Fluconazole” (Evidence-based Complementary and Alternative Medicine : eCAM, 2014)
